Measurements reported in PubChem BioAssay AID504764 (Drosophila RNAi Screening Center, 2011).
In all, the deposit lists about 22,000 reagents; this is an unselected part of those that have a named target and a result. Of all reagents, 403 (1.9%) got an active call. 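Unnormalised raw counts per well; ratio z-scores behind the hit calls and whether each hit raises or lowers signal are not deposited.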 The record does not give: the amount of reagent.

- Aim: 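Genome-wide screen for regulators of Notch-driven gene expression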 (primary screen)
- Cells: Drosophila Kc167 cells
- Knock-down reagent: long dsRNA against Drosophila genes
- Duration: about 5 days (4 days dsRNA, then 24 h after transfection)
- Conditions: transfection of constitutively active membrane-tethered Notch lacking the extracellular domain, read 24 h later
- Measurement: 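Firefly luciferase from an E(spl)m3 reporter with active Notch, plus control-promoter and uninduced reporter wells for normalisation; unnormalised counts, duplicate wells a and b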
- Reading the numbers: induced reporter light, run 1, well a and induced reporter light, run 1, well b: higher = more light from the Notch target reporter with active Notch; control promoter light, run 1, well a and control promoter light, run 1, well b: higher = more light from the viral control promoter (cell number, transfection, viability); uninduced reporter light, run 1, well a: higher = more light from the Notch target reporter without active Notch
- Hit rule: 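Wells with low control signal or poorly matching duplicates excluded; duplicates averaged; per source plate, z beyond ±2 for induced/control log2 ratio or beyond ±1.8 for induced/uninduced marks a hit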
- Calls: active = modifier hit (raised or lowered Notch signal); inactive = not a hit

The opening 2 entries, to show the layout:
opa (GeneID 40605) [DRSC12384]: induced reporter light, run 1, well a = 1.25e5; induced reporter light, run 1, well b = 94535; control promoter light, run 1, well a = 1.47e5; control promoter light, run 1, well b = 1.30e5; uninduced reporter light, run 1, well a = 8182; outcome = inactive
opa (GeneID 40605) [DRSC22563]: outcome = inactive

Results, repeating the preview:
opa (GeneID 40605) [DRSC12384]: induced reporter light, run 1, well a = 1.25e5; induced reporter light, run 1, well b = 94535; control promoter light, run 1, well a = 1.47e5; control promoter light, run 1, well b = 1.30e5; uninduced reporter light, run 1, well a = 8182; outcome = inactive
opa (GeneID 40605) [DRSC22563]: outcome = inactive
Mink (GeneID 42982) [DRSC14291]: induced reporter light, run 1, well a = 1.33e5; induced reporter light, run 1, well b = 1.31e5; control promoter light, run 1, well a = 1.88e5; control promoter light, run 1, well b = 1.88e5; uninduced reporter light, run 1, well a = 13180; outcome = inactive
Kah (GeneID 38072) [DRSC07887]: induced reporter light, run 1, well a = 1.94e5; induced reporter light, run 1, well b = 2.19e5; control promoter light, run 1, well a = 2.00e5; control promoter light, run 1, well b = 2.03e5; uninduced reporter light, run 1, well a = 16320; outcome = inactive
Kah (GeneID 38072) [DRSC08515]: induced reporter light, run 1, well a = 1.21e5; induced reporter light, run 1, well b = 1.15e5; control promoter light, run 1, well a = 1.43e5; control promoter light, run 1, well b = 1.42e5; uninduced reporter light, run 1, well a = 5760; outcome = inactive
CHKov1 (GeneID 43067) [DRSC01566]: induced reporter light, run 1, well a = 58425; induced reporter light, run 1, well b = 60425; control promoter light, run 1, well a = 63985; control promoter light, run 1, well b = 80195; uninduced reporter light, run 1, well a = 6215; outcome = inactive
CHKov1 (GeneID 43067) [DRSC01696]: induced reporter light, run 1, well a = 57935; induced reporter light, run 1, well b = 67415; control promoter light, run 1, well a = 56695; control promoter light, run 1, well b = 51465; uninduced reporter light, run 1, well a = 5015; outcome = inactive
CHKov1 (GeneID 43067) [DRSC14258]: induced reporter light, run 1, well a = 1.38e5; induced reporter light, run 1, well b = 1.35e5; control promoter light, run 1, well a = 1.93e5; control promoter light, run 1, well b = 1.72e5; uninduced reporter light, run 1, well a = 10670; outcome = inactive
CHKov1 (GeneID 43067) [DRSC20937]: induced reporter light, run 1, well a = 2.10e5; induced reporter light, run 1, well b = 1.94e5; control promoter light, run 1, well a = 3.10e5; control promoter light, run 1, well b = 3.16e5; uninduced reporter light, run 1, well a = 19490; outcome = inactive
CG10353 (GeneID 32148) [DRSC19354]: induced reporter light, run 1, well a = 1.21e5; induced reporter light, run 1, well b = 1.71e5; control promoter light, run 1, well a = 2.47e5; control promoter light, run 1, well b = 2.29e5; uninduced reporter light, run 1, well a = 8760; outcome = inactive
cnk (GeneID 36952) [DRSC07595]: induced reporter light, run 1, well a = 1.02e5; induced reporter light, run 1, well b = 74380; control promoter light, run 1, well a = 65315; control promoter light, run 1, well b = 83800; uninduced reporter light, run 1, well a = 6075; outcome = inactive
CG10764 (GeneID 36962) [DRSC06000]: induced reporter light, run 1, well a = 94560; induced reporter light, run 1, well b = 84860; control promoter light, run 1, well a = 1.35e5; control promoter light, run 1, well b = 1.49e5; uninduced reporter light, run 1, well a = 7700; outcome = inactive
